Results published in the supplement of paper PMC10849652.
Some of the results follow.

By UniProt entry, the sequences of proteins in these tests, tags left out. Where a name states a change or a piece, a line headed by the entry shows the natural chain unless it says otherwise.
UniProt Q9NZM4: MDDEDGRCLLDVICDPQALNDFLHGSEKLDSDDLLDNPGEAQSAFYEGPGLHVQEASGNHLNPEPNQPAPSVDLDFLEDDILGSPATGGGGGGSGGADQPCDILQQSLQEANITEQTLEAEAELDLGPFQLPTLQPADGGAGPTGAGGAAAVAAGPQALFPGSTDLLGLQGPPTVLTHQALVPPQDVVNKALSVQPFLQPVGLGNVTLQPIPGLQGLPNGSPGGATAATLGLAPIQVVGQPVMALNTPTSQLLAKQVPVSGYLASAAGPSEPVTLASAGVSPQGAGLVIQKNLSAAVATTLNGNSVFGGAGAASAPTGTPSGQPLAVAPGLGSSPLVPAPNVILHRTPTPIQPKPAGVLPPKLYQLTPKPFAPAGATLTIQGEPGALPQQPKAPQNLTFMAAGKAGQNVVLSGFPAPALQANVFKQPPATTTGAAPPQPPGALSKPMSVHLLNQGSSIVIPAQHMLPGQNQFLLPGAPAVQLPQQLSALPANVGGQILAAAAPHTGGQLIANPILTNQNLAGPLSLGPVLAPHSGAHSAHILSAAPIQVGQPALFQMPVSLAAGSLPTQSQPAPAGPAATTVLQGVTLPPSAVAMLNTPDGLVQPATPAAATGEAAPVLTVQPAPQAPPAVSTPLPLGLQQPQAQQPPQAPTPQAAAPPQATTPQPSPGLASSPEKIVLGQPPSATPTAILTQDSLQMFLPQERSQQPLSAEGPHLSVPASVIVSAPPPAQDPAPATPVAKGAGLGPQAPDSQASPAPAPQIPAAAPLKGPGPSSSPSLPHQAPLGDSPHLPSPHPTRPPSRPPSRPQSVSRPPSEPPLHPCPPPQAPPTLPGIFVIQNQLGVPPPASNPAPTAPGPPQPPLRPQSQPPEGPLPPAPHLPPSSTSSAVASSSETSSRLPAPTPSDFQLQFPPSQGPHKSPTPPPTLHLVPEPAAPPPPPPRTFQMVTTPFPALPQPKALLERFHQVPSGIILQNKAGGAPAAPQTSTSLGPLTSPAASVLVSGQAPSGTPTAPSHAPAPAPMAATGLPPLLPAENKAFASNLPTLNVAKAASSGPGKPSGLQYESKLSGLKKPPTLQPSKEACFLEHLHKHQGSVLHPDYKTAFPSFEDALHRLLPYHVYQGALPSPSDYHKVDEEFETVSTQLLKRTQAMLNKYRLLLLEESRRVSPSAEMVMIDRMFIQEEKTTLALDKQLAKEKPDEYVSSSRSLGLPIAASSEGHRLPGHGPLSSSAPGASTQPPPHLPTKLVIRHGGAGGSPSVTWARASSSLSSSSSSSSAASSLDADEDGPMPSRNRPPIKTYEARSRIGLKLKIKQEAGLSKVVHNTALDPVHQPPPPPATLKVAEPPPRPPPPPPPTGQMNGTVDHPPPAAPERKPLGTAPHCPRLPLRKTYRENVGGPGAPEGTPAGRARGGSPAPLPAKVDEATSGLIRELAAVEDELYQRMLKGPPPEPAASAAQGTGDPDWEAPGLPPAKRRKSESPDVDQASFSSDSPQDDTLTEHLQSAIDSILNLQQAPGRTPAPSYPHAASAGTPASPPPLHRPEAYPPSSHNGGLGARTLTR
UniProt P15291: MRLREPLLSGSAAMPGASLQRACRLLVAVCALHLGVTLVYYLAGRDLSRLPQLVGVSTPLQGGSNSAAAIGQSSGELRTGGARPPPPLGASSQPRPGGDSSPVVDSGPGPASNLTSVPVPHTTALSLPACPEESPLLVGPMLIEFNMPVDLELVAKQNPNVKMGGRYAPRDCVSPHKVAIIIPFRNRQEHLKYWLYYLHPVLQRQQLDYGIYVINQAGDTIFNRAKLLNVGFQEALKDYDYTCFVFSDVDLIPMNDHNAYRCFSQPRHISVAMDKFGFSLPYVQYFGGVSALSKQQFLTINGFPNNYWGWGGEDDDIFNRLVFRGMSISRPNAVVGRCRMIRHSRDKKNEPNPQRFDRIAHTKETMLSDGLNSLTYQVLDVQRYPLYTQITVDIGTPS
UniProt Q9BX63: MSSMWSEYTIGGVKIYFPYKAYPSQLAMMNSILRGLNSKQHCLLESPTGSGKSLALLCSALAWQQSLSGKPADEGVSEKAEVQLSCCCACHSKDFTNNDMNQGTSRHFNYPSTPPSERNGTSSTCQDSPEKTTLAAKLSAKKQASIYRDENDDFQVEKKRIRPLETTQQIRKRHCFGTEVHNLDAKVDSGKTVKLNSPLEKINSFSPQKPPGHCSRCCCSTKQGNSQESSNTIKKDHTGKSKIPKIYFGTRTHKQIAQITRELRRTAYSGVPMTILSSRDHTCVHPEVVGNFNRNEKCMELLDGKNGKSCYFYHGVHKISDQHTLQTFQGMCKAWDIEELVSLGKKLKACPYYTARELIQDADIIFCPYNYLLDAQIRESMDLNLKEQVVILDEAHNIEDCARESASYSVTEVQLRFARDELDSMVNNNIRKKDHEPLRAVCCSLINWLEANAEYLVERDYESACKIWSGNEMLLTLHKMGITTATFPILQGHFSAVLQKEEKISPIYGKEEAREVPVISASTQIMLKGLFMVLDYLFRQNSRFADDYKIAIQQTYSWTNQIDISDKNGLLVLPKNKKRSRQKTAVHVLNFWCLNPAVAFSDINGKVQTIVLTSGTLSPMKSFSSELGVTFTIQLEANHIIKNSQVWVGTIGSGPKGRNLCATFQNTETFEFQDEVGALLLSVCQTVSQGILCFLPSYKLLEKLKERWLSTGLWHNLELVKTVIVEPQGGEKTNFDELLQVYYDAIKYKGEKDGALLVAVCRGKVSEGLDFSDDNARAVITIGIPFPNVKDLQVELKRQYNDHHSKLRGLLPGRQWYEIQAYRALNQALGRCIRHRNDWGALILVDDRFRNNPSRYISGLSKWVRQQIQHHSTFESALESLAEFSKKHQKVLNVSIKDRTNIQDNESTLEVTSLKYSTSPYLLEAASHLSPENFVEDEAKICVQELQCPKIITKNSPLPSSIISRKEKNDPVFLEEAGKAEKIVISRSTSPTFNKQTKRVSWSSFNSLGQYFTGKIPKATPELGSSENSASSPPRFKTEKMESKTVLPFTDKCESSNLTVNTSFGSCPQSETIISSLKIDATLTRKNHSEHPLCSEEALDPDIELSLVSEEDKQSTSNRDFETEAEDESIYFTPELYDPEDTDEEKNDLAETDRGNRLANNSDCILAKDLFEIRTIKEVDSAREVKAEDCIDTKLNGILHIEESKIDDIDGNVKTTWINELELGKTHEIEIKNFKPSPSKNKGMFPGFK
UniProt O43521, whole entry, looked up: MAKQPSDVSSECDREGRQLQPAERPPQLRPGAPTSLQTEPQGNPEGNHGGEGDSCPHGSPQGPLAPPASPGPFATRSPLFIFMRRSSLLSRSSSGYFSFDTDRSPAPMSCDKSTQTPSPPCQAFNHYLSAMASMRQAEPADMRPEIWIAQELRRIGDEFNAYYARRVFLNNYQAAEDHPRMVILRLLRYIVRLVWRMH
UniProt Q4VC05, whole entry, looked up: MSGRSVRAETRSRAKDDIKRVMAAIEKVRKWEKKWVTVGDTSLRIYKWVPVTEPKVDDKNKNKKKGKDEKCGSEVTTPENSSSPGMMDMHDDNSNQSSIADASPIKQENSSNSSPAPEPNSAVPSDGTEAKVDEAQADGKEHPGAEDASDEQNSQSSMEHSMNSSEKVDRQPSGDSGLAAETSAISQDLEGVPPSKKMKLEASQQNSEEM
UniProt Q5T5X7: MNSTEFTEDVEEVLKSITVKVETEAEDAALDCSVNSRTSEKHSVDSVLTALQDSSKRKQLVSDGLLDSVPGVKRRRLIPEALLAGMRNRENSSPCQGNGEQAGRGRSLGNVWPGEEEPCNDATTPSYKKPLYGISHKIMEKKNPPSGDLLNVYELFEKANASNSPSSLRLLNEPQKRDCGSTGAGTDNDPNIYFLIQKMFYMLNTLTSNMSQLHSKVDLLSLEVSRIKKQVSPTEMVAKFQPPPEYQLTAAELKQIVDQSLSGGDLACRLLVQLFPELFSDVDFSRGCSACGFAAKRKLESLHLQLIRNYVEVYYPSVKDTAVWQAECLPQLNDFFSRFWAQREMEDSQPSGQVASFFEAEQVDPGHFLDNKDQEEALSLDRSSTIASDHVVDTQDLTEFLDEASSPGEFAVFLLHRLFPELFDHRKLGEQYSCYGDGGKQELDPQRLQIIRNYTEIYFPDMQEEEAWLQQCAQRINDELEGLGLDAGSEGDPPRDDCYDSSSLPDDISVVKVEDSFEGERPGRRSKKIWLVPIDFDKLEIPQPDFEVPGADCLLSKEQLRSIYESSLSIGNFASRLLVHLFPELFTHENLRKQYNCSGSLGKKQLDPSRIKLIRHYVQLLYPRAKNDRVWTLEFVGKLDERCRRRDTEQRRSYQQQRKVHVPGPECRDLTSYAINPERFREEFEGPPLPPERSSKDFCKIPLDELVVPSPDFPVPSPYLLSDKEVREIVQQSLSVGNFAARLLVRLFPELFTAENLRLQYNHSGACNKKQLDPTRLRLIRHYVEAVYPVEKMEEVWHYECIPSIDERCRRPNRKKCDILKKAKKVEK
UniProt P15056, whole entry, looked up: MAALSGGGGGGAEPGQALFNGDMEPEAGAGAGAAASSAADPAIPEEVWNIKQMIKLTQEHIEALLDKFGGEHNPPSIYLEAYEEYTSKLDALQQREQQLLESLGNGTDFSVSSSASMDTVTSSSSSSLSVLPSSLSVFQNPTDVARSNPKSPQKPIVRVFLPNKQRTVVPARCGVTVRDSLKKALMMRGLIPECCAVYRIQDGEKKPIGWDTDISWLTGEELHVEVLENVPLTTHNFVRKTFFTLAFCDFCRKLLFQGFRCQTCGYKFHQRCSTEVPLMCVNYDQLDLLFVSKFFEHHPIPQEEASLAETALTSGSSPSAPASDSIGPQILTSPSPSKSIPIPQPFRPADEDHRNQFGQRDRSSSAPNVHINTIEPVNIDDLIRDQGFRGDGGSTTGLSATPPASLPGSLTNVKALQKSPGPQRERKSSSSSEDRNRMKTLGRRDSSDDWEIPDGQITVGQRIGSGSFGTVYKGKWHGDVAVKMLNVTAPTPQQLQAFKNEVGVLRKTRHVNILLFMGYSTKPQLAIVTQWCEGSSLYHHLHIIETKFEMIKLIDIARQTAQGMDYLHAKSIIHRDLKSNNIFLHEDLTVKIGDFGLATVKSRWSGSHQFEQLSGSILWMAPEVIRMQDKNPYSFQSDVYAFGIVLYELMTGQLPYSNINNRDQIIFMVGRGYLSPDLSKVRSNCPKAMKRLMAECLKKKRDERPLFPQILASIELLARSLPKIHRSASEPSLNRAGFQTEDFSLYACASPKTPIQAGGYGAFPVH
UniProt Q9BUT1: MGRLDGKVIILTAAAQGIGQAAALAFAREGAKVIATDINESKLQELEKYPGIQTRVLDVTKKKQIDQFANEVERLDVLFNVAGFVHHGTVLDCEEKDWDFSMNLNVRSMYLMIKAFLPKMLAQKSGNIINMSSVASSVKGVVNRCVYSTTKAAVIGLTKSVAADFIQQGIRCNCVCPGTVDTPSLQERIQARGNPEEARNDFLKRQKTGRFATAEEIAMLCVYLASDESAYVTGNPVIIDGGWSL
UniProt Q5PSV4: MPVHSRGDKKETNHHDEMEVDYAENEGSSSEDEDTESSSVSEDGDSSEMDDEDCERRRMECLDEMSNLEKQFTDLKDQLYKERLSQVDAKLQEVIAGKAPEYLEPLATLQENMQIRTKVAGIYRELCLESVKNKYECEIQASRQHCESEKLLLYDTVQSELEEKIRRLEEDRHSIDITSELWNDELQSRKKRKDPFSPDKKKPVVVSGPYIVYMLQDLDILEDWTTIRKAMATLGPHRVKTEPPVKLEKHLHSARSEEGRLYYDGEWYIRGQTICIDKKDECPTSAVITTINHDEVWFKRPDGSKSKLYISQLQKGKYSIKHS
UniProt Q14201: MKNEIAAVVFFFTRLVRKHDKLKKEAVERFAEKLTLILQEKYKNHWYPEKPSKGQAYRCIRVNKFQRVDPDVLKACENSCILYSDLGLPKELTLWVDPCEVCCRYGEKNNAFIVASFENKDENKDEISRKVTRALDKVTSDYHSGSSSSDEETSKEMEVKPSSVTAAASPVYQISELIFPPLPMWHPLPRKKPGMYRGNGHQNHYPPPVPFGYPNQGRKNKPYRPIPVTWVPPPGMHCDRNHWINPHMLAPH
UniProt Q9BSF8: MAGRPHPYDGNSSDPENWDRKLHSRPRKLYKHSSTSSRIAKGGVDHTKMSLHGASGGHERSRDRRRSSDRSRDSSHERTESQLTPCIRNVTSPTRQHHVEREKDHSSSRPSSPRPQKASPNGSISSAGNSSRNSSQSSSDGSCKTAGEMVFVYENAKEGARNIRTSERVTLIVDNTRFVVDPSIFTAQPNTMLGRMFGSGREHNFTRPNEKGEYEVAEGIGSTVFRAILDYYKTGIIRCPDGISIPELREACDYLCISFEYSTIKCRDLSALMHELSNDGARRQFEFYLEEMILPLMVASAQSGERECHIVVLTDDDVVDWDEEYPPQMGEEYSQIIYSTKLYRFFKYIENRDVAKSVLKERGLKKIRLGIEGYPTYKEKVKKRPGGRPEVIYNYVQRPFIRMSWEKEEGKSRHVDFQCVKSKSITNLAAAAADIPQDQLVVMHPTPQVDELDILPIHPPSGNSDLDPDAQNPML

Legend:
Test in all cases: log2 fold change, soluble protein after heating vs DMSO (PISA); higher = thermal stabilisation; K562 lysate, 10 uM; active = over 0.2 and 3.5 SD of the protein, either way, in both replicates (recomputed)
lapatinib = compound: CS(=O)(=O)CCNCc1ccc(-c2ccc3ncnc(Nc4ccc(OCc5cccc(F)c5)c(Cl)c4)c3c2)o1 [lapatinib]
Method in brief: (§1)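 Soluble protein was defined as the supernatant remaining after 21,000xg for 90 min, following pooling of heated aliquots and adjustment to 0.5% NP-40 at 4°C. Before that, crude K562 extract at 1 mg/mL protein in PBS pH 7.4 with 1 mM MgCl2 was treated with 10 μM compound for 30 min and heated for 3 min across 48°C-58°C. Quantification used TMTpro 16plex LC-MS/MS with channel sums equalised, and values are log-two fold changes in thermal stability relative to solvent controls from duplicates.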

pictilisib = compound: CS(=O)(=O)N1CCN(Cc2cc3nc(-c4cccc5[nH]ncc45)nc(N4CCOCC4)c3s2)CC1 [pictilisib]
Method in brief: as §1

crizotinib = compound: C[C@@H](Oc1cc(-c2cnn(C3CCNCC3)c2)cnc1N)c1c(Cl)ccc(F)c1Cl [crizotinib]
Method in brief: as §1

[1] = compound: C[C@H](C1=CC=C(C=C1)C(=O)NC2=C3C=CNC3=NC=C2)N
Method in brief: as §1

duvelisib = compound: C[C@H](Nc1ncnc2nc[nH]c12)c1cc2cccc(Cl)c2c(=O)n1-c1ccccc1 [duvelisib]
Method in brief: as §1

gandotinib = compound: Cc1cc(Nc2cc(CN3CCOCC3)c3nc(C)c(Cc4ccc(Cl)cc4F)n3n2)n[nH]1 [gandotinib]
Method in brief: as §1

doramapimod = compound: Cc1ccc(-n2nc(C(C)(C)C)cc2NC(=O)Nc2ccc(OCCN3CCOCC3)c3ccccc23)cc1 [doramapimod]
Method in brief: as §1

bafetinib = compound: Cc1ccc(NC(=O)c2ccc(CN3CC[C@H](N(C)C)C3)c(C(F)(F)F)c2)cc1Nc1nccc(-c2cncnc2)n1 [bafetinib]
Method in brief: as §1

[2] = compound: Cc1cccc(CC(=O)N2CCc3c2ccc(-c2cn(C)c4ncnc(N)c24)c3F)n1
Method in brief: as §1

tozasertib = compound: Cc1cc(Nc2cc(N3CCN(C)CC3)nc(Sc3ccc(NC(=O)C4CC4)cc3)n2)n[nH]1 [tozasertib]
Method in brief: as §1

Measured: log2 fold change

BICRA (UniProt Q9NZM4)
inactive: lapatinib -0.099 | pictilisib 0.052 | crizotinib -0.059 | [1] -0.027 | duvelisib 0.105 | gandotinib 0.171 | doramapimod 0.014 | bafetinib 0.078 | [2] 0.133

B4GALT1 (UniProt P15291)
inactive: lapatinib 0.071 | pictilisib -0.049 | crizotinib 0.036 | [1] -0.005 | gandotinib -0.027 | tozasertib -0.1 | doramapimod -0.005 | bafetinib 0.05 | [2] 0.012

BRIP1 (UniProt Q9BX63)
inactive: lapatinib -0.068 | crizotinib 0 | [1] -0.025 | duvelisib -0.109 | gandotinib 0.005 | tozasertib 0.133 | doramapimod 0.046 | [2] 0

BCL2L11 (UniProt O43521)
inactive: pictilisib 0.379 | crizotinib -0.093 | [1] 0.069 | gandotinib 0.009 | doramapimod 0.051 | bafetinib -0.049 | [2] -0.005

BIN3 (UniProt Q9NQY0)
inactive: pictilisib 0 | crizotinib -0.046 | [1] 0.017 | duvelisib 0.033 | gandotinib -0.081 | doramapimod 0.174 | bafetinib -0.052 | [2] -0.252

BAZ2A (UniProt Q9UIF9)
inactive: lapatinib -0.123 | crizotinib -0.034 | [1] -0.133 | gandotinib 0.26 | tozasertib 0.109 | doramapimod -0.014 | [2] 0.16

BCL7A (UniProt Q4VC05)
inactive: lapatinib -0.083 | pictilisib -0.024 | crizotinib 0.09 | [1] -0.198 | duvelisib 0.016 | gandotinib 0.067 | doramapimod -0.025 | bafetinib -0.01 | [2] -0.059

Random excerpt: 2 records from the list.
BRIP1 (UniProt Q9BX63)
inactive: lapatinib -0.068 | crizotinib 0 | [1] -0.025 | duvelisib -0.109 | gandotinib 0.005 | tozasertib 0.133 | doramapimod 0.046 | [2] 0

BIN3 (UniProt Q9NQY0)
inactive: pictilisib 0 | crizotinib -0.046 | [1] 0.017 | duvelisib 0.033 | gandotinib -0.081 | doramapimod 0.174 | bafetinib -0.052 | [2] -0.252

Carrying on.

BEND3 (UniProt Q5T5X7)
inactive: lapatinib -0.032 | crizotinib -0.083 | [1] -0.07 | duvelisib 0.042 | gandotinib -0.002 | tozasertib -0.114 | doramapimod 0.182 | [2] 0.085

BRAF (UniProt P15056)
inactive: pictilisib -0.025 | crizotinib -0.099 | [1] -0.086 | duvelisib 0.015 | gandotinib 0.014 | tozasertib -0.013 | [2] 0.065
active: bafetinib 0.64

BDH2 (UniProt Q9BUT1)
inactive: lapatinib -0.007 | pictilisib 0.01 | crizotinib 0.062 | duvelisib 0.057 | tozasertib -0.08 | doramapimod -0.075 | bafetinib -0.021

BRMS1L (UniProt Q5PSV4)
inactive: lapatinib 0.017 | tozasertib 0.068

BORA (UniProt Q6PGQ7)
inactive: pictilisib 0.038 | crizotinib 0.009 | [1] 0.023 | duvelisib 0.005 | gandotinib -0.161 | tozasertib 0.001 | doramapimod -0.046 | bafetinib 0.038 | [2] -0.103

BRMS1 (UniProt Q9HCU9)
inactive: lapatinib -0.024 | crizotinib 0.07 | duvelisib 0.042 | tozasertib -0.042 | doramapimod 0.513

BTG3 isoform 2 (UniProt Q14201)
inactive: tozasertib 0.062

BEGAIN, A0A1B0GVM0
inactive: crizotinib -0.081 | tozasertib -0.014 | doramapimod -0.056

BPNT1 (UniProt A6NF51)
inactive: pictilisib -0.072 | duvelisib -0.193 | tozasertib 0.03 | bafetinib -0.094

BTBD10 isoform 2 (UniProt Q9BSF8)
inactive: pictilisib -0.079 | crizotinib -0.027 | duvelisib 0.133 | doramapimod 0.02 | bafetinib -0.021
